The list shows a part of the results. No stated cut-off is given here; in the data, active = 150% or more and inactive = the rest. Repeats are few or missing, and single values can be far off.
The molecules below were run on Staphylococcus aureus JE2-lux inside RAW 264.7 macrophages (assay: intracellular bacterial bioluminescence relative to DMSO vehicle; higher = higher intracellular bacterial metabolic activity). Settings: 10 µM; treatment time 4 h; gentamicin 50 µg/ml.

SMILES | intracellular bacterial bioluminescence
CCN(c1ccccc1)S(=O)(=O)c1ccc2[nH]c(=O)cc(C)c2c1 | inactive: 98.5%
O=C(Cn1cccc1-c1nc(-c2ccccc2)cs1)N1CC=C(c2ccccc2)CC1 | inactive: 104%
COc1ccc2cc(CCNC(=O)c3cccc(C(F)(F)F)c3)c(=O)[nH]c2c1 | inactive: 90.5%
CCCCCCCNC(=O)c1c(N)n(/N=C/c2ccco2)c2nc3ccccc3nc12 | inactive: 96.9%
COC(=O)c1ccc(C(=O)NNc2nc3c(C)cc(C)cc3s2)cc1 | inactive: 93.2%
N#Cc1c(O)nc(N2CCCCC2)nc1-c1ccc2c(c1)OCO2 | inactive: 130%
CCOC(=O)c1ccccc1NC(=O)CSc1ncc(CO)n1Cc1ccc(OC)cc1 | inactive: 106%
NC(=O)c1ccccc1NC(=O)c1cccn(OCc2ccccc2F)c1=O | inactive: 74.7%
Cc1ccccc1-c1nc2sc(N3CCN(CC(=O)N4CCCC4)CC3)nn2c1NC(C)(C)C | inactive: 93.3%
O=C(Cc1cc(=O)[nH]c(=O)[nH]1)N1CCN(C(=O)c2ccco2)CC1 | inactive: 105%
Cc1cc(=O)n2nc(NCc3ccc(C(=O)Nc4ccc(C)c(Cl)c4)cc3)nc2[nH]1 | inactive: 110%
O=C(CSc1ncccc1C(=O)O)Nc1ccc(Cl)cc1 | inactive: 117%
COc1ccc(N2CC(NC(=O)Nc3nc4ccc(C)cc4s3)CC2=O)cc1OC (stereo not drawn) | inactive: 103%
Cc1ccc(S(=O)(=O)CCCC(=O)Nc2ccc3c(c2)C(=O)NC3=O)cc1 | inactive: 120%
Cc1ccc(OCC(=O)N/N=C/c2ccccc2O)cc1 | inactive: 108%
Cc1cc(Cl)ccc1OCC(=O)Nc1ccc(S(=O)(=O)Nc2onc(C)c2C)cc1 | inactive: 86.2%
O=C1Nc2ccc(S(=O)(=O)N(CCO)CCO)c3cccc1c23 | inactive: 109%
CCc1ccc(S(=O)(=O)c2c(C(=O)N3CCCC3)cnc3ccc(C)cc23)cc1 | inactive: 71.2%
CCOc1ccc(-n2ccnc(NCc3ccc4c(c3)OCO4)c2=O)cc1 | inactive: 85.7%
CC1CC(C)CN(C(=O)c2cccn3c(-c4ccc(F)cc4)nnc23)C1 (stereo not drawn) | inactive: 38.3%

SMILES | intracellular bacterial bioluminescence
COc1cc(NS(=O)(=O)c2cc(-c3nc(C)cs3)cs2)cc(OC)c1 | inactive: 85.8%
CCc1cccc(OCC(O)Cn2c(N3CCN(C)CC3)nc3c2c(=O)[nH]c(=O)n3C)c1 (stereo not drawn) | inactive: 107%
Cc1c(C(=O)C2=C(O)C(=O)N(CCN(C)C)C2c2ccco2)cnn1-c1ccccc1 (stereo not drawn) | inactive: 84.4%
COc1cccc(NC(=O)CSc2nc(-c3ccccc3)nc3c2Cc2cccc(OC)c2O3)c1 | inactive: 105%
NC(=O)c1ccc(NC(=O)C(=O)Nc2cccc(N3CCCC3=O)c2)cc1 | inactive: 124%
CCOC(=O)c1oc2ccccc2c1NC(=O)Cc1cccs1 | inactive: 92.6%
N#C/C(=C\c1ccc(-c2ccc([N+](=O)[O-])cc2)o1)c1nc(-c2cccs2)cs1 | inactive: 120%
Cc1nnc2ccc(-n3ncc4c3NC(=O)CC4c3ccccc3OC(C)C)nn12 (stereo not drawn) | inactive: 88.3%
C[C@@H]1CN(Cc2ccccc2F)CCN1CC(=O)N1CC(=O)Nc2ccccc21 | inactive: 87%
CCOc1ccc2c(c1)c(=O)c(C(=O)c1ccccc1)cn2CC(=O)Nc1cccc(OC)c1 | inactive: 88.4%
NC(=O)COC(=O)c1cccc2c1-c1ccccc1C2=O | inactive: 111%
O=C(Nc1nnc(-c2ccc(Br)cc2)s1)C1CC1 | inactive: 102%
O=C(CCn1cnc(-c2ccccc2)c1-c1ccccc1)N/N=C/c1ccco1 | inactive: 86.4%
COc1ccc(N2CCN(Cc3nc4c(c(=O)n(C)c(=O)n4C)n3CC(C)=O)CC2)cc1 | inactive: 108%
Cc1cccc(-c2nc3n(CC(=O)N(CCO)Cc4ccccc4)c(C)cc(=O)n3n2)c1 | inactive: 97.7%
CCCCOC(=O)c1ccc(Nc2ncnc3c2cnn3-c2ccccc2)cc1 | inactive: 83.8%
CC(=O)Oc1ccccc1C(=O)Oc1ccc(/C=N\n2cnnc2)cc1 | inactive: 112%
Cc1ccc(CN2C3CCCC2CC(NC(=O)NCc2ccccc2)C3)cc1 (stereo not drawn) | inactive: 98%
COc1ccc2c(c1)s/c(=N\C(=O)CSCC(=O)N1CCc3ccccc31)n2C | inactive: 87.3%
O=C(N/N=C/c1c(F)cccc1Cl)c1n[nH]c2c1CCC2 | inactive: 100%

SMILES | intracellular bacterial bioluminescence
COc1ccc2nc(Nc3nc4ccc(S(C)(=O)=O)cc4s3)sc2c1 | inactive: 95.3%
COc1ccc(S(=O)(=O)NC(=N)NCCc2c[nH]c3ccc(F)cc23)cc1 | inactive: 104%
COc1cc(Nc2cc(C)nc3ncnn23)cc(OC)c1 | inactive: 80.9%
O=C(CSc1nc(-c2ccccc2)no1)Nc1ccccc1Cl | inactive: 87.8%
CC1CCCN(c2ccc3cccc(OCC(=O)Nc4ccc5c(c4)OCO5)c3n2)C1 (stereo not drawn) | inactive: 95%
Cc1cc(NC(=O)COc2ccc3ccccc3c2)nc2c1c(=O)oc1ccccc12 | inactive: 79.6%
CCOc1ccc(CCNC(=O)c2nnn(CC(=O)Nc3cc(C)cc(C)c3)c2N)cc1OCC | inactive: 72.4%
Cc1cc(O)nc(SCc2nc3ncccn3c2Br)n1 | inactive: 88.2%
Cc1cc(C)c2[nH]c(=O)c(CN(C(=O)Nc3ccccc3C)C3CC3)cc2c1 | active: 194%
COc1cccc(CN2N=NC3C(=O)N(c4ccc(OC)c(OC)c4)C(=O)C32)c1 (stereo not drawn) | inactive: 91.6%
Cc1csc(-c2csc(S(=O)(=O)N3CCc4ccccc4C3)c2)n1 | inactive: 108%
Cc1ccc(NC(=O)CSc2nc3c(oc4ccccc43)c(=O)[nH]2)cc1C | inactive: 90.4%
Cc1cn(C2OC(COC(=O)c3ccccc3)C(O)C2O)c(=O)[nH]c1=O (stereo not drawn) | inactive: 124%
CCOC(=O)c1ccc2cc3c(cc2c1O)OCCO3 | inactive: 107%
Cc1ncc(C(=O)NC(c2ccccc2)c2cccnc2)c(C)n1 (stereo not drawn) | inactive: 119%
COc1ccc(S(=O)(=O)c2nnn3c2nc(Nc2cccc(C)c2)c2ccccc23)cc1 | inactive: 94.6%
COc1ccc(NC(=O)c2sc(C)nc2-c2ccccc2)cc1 | inactive: 99.1%
COc1ccc(Cl)cc1Nc1nnc(C)c(=O)[nH]1 | inactive: 137%

2 consecutive compounds from above, for reference:
SMILES | intracellular bacterial bioluminescence
COc1ccc(S(=O)(=O)c2nnn3c2nc(Nc2cccc(C)c2)c2ccccc23)cc1 | inactive: 94.6%
COc1ccc(NC(=O)c2sc(C)nc2-c2ccccc2)cc1 | inactive: 99.1%
